Experimental data: article PMC8079276
No constants are given. Whether binding was seen depends on the method and setting. Binding seen in cells or lysates may run through a third protein. Some entries that bind do so weakly or less than the wild type. Sequences can lack the tags named with a protein.

Sequences of proteins named here, by UniProt entry; tags and fusion partners are left off.
UniProt Q61191: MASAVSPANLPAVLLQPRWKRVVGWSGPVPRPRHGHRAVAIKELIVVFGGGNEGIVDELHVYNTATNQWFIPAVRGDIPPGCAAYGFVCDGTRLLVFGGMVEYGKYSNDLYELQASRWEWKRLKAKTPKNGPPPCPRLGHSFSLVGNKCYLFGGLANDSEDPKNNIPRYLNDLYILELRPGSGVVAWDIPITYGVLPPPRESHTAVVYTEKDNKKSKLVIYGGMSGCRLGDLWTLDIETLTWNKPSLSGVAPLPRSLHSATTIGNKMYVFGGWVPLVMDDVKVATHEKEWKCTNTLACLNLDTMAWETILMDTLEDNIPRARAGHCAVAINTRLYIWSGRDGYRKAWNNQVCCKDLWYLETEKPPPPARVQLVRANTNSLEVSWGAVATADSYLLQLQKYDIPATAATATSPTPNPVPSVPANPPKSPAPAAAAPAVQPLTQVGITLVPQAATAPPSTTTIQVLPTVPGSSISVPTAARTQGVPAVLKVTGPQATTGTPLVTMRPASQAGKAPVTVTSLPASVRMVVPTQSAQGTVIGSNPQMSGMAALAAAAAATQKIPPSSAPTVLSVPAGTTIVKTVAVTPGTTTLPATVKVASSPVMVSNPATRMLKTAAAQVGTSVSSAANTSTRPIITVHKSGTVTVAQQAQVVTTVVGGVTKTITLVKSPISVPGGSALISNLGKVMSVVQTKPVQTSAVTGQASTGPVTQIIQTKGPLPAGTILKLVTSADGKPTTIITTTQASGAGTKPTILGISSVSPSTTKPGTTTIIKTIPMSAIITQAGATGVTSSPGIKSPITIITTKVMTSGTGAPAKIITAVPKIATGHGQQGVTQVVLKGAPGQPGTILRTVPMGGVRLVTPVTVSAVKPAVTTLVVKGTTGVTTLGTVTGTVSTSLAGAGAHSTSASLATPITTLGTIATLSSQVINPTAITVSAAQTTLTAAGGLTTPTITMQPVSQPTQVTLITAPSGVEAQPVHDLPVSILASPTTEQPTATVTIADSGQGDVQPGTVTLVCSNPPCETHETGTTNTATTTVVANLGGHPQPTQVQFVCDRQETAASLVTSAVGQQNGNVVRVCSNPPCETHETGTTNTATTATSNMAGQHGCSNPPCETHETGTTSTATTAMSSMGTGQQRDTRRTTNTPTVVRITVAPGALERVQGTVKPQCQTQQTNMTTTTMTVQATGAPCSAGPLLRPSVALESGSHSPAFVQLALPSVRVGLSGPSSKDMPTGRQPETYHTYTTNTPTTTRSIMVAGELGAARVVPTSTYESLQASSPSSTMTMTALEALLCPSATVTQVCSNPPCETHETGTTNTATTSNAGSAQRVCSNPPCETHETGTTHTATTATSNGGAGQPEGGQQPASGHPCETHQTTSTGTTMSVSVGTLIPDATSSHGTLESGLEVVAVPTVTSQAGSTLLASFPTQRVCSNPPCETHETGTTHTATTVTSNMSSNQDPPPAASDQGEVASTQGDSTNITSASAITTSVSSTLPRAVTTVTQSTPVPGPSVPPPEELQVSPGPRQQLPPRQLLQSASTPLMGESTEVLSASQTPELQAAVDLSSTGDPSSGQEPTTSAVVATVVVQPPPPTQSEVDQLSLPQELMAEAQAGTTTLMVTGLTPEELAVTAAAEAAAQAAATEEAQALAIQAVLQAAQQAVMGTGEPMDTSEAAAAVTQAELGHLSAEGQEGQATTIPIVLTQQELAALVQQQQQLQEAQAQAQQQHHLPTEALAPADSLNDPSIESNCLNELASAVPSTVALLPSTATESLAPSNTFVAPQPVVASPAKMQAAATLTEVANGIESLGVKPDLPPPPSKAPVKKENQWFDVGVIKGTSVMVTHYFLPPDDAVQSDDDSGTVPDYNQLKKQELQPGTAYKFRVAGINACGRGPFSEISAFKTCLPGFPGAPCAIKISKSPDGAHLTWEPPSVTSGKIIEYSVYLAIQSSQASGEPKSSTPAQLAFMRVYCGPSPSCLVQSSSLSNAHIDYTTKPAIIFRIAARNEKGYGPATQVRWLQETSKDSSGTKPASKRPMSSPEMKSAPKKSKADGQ
UniProt P58871: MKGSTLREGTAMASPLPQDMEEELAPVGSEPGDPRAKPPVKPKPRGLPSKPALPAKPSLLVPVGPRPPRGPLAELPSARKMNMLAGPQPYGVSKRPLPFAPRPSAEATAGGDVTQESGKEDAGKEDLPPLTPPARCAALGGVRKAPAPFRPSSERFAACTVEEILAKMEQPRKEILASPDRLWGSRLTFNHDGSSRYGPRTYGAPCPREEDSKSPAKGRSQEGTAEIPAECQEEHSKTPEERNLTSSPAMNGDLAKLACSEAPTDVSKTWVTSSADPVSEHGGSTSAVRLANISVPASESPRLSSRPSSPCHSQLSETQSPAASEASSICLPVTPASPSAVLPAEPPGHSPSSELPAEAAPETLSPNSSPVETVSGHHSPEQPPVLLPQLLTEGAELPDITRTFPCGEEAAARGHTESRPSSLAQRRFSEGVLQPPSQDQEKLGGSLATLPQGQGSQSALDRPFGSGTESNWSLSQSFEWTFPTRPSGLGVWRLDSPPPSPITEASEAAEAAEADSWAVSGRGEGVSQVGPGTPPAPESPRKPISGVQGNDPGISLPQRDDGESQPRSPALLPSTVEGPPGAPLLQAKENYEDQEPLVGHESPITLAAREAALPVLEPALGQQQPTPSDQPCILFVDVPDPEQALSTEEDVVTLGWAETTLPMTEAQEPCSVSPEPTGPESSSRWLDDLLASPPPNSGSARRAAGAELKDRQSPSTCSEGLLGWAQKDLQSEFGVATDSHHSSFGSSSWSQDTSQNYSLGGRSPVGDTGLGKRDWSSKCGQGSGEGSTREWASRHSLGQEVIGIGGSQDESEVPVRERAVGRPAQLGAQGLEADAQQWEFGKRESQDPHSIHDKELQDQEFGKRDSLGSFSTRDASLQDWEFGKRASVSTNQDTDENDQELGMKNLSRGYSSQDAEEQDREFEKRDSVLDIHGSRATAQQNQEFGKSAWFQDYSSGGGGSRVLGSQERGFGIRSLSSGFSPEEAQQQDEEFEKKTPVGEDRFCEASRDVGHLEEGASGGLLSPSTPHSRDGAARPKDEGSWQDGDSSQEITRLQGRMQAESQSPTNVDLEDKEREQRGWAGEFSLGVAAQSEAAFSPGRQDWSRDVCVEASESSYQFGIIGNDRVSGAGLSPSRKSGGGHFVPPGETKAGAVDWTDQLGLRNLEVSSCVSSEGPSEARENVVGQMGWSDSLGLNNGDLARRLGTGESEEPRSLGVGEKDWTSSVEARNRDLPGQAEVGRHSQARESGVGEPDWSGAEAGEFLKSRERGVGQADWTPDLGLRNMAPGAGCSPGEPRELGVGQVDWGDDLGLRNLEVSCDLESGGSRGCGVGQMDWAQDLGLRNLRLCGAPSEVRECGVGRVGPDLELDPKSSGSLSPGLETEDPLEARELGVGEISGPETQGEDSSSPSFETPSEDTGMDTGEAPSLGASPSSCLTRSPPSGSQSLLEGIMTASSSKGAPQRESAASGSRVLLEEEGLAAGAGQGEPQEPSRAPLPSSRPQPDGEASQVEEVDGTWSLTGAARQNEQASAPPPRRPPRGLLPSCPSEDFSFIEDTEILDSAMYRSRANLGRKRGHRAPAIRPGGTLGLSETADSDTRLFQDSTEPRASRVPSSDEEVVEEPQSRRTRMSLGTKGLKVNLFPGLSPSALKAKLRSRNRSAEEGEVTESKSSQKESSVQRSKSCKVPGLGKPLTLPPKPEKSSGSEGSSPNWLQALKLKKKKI
UniProt Q9Z1R2: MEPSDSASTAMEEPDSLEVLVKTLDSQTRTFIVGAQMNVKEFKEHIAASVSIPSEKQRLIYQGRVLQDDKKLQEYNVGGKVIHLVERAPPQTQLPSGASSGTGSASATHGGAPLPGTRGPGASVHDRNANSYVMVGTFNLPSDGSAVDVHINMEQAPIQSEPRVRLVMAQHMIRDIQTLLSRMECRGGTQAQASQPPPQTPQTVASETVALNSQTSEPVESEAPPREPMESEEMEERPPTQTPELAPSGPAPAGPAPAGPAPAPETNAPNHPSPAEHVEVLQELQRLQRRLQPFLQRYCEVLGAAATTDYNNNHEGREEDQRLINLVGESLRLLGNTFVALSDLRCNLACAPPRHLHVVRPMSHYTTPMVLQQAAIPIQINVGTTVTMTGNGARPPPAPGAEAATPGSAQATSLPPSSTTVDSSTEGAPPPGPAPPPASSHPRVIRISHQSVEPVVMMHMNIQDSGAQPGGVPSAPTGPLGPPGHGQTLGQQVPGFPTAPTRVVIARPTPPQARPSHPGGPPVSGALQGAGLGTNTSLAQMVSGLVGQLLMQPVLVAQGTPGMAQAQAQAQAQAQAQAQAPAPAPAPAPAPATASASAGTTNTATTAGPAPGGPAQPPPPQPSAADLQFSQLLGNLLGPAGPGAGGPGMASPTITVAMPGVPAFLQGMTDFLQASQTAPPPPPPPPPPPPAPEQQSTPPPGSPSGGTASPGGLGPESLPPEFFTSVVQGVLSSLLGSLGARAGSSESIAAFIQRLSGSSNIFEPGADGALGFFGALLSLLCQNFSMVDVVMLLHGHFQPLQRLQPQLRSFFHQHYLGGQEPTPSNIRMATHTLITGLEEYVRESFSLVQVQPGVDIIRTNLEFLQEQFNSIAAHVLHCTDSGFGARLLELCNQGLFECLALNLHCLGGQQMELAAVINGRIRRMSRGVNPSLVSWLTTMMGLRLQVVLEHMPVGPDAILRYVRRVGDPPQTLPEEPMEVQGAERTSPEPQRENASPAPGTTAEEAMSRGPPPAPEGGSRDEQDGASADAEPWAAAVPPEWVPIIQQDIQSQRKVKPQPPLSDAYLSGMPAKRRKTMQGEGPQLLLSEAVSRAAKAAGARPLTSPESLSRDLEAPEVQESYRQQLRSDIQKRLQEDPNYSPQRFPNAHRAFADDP

T1: UDP-N-acetylglucosamine-peptide N-acetylglucosaminyltransferase (mouse (endogenous in MEFs)) (UniProt Q8CGY8)
T1 sequence: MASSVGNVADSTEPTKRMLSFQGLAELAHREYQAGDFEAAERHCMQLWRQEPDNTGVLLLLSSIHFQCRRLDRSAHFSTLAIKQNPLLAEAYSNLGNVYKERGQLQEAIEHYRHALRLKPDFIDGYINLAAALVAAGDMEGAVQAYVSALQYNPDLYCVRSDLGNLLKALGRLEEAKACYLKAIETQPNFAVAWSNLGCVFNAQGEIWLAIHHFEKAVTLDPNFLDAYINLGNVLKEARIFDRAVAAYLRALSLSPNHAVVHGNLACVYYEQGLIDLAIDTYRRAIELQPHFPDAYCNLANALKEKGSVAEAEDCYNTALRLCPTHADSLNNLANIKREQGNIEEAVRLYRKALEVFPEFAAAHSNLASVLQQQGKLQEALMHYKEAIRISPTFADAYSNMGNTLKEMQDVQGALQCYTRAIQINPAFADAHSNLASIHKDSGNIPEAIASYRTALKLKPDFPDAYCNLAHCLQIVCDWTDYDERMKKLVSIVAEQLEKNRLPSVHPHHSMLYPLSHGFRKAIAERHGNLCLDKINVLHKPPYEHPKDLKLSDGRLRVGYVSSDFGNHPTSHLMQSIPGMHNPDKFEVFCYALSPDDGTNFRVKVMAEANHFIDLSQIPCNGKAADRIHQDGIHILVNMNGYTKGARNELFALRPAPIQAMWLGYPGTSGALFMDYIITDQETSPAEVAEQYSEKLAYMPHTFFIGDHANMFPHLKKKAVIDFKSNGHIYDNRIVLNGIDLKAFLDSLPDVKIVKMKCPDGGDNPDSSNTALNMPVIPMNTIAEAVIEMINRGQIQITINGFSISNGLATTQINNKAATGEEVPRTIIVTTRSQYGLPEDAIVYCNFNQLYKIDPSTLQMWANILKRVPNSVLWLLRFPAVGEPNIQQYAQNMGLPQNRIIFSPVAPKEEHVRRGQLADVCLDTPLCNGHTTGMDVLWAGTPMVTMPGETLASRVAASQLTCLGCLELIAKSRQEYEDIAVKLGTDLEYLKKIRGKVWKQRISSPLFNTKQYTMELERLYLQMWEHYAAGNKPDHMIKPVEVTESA

B1: UDP-N-acetylglucosamine-peptide N-acetylglucosaminyltransferase (enzyme, UniProt Q8CGY8-1 1-1046)
chain: T1 sequence

How the values were obtained:
[1] = target: T1, UDP-N-acetylglucosamine-peptide N-acetylglucosaminyltransferase (mouse (endogenous in MEFs)); assay: co-IP; endogenous OGT immunoprecipitated (antibody AL24) from lysates of untreated, H2O2-treated (2.5 mM; 60 and 90 min, or 0 to 150 min) and OGT-null MEFs; Western blot for the partners
[2] = target: Host cell factor 1 precursor (mouse (endogenous in MEFs)) (UniProt Q61191); assay: co-IP; endogenous HCF1 immunoprecipitated (anti-HCF1 antibody) from lysates (300 ug) of MEFs treated with or without 2.5 mM H2O2 for 0 to 150 min; Western blot for OGT

| Molecule | binding [1] | binding [2] |
| --- | --- | --- |
| 182-kDa tankyrase-1–binding protein (from UniProt P58871 1-1720) | binds | – |
| Host cell factor 1 precursor (from UniProt Q61191 1-2045) | binds | – |
| Large proline-rich protein BAG6 isoform X8 (from UniProt Q9Z1R2 1-1154) | binds | – |
| B1 | – | binds |
